Measured values as given in patent US5686422A, “Synthetic inhibitors of mammalian collagenase” (Research Corporation Technologies, Inc., priority 1995, dated 1997).
Like-named read-outs stand apart in the source and are kept apart here. For some of these results: Not every detail of the peptide structures is certain; ends, links or a residue may be inferred. For some of these results: At least one structure is not confirmed: it was looked up by name or label, or the drawing left a doubt.

Assays:
pig synovial collagenase = molecular target: T1, pig synovial collagenase (Sus scrofa, UniProt P21692); assay: Collagenase assay: degradation of type I collagen (SDS-PAGE/densitometry or spectrophotometric); assay type: biochemical; conditions: approximate concentration giving 50% inhibition of collagen degradation
T1 construct: pig synovial collagenase (0.04 μg protein); from tissue; host or cells: pig synovium (only from the enzyme's name; preparation not described)
T1 sequence (P21692 100-469): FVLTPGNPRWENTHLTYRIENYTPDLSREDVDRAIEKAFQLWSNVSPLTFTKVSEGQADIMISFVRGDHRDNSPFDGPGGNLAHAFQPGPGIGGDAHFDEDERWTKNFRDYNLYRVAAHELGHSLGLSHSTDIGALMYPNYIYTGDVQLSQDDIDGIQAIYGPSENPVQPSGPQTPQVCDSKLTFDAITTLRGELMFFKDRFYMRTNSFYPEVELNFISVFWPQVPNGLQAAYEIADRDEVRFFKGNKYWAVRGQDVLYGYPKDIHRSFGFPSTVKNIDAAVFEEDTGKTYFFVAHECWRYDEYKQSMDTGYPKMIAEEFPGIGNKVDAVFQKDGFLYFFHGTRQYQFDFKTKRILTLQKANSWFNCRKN
Experimental: Collagenase activity was determined after electrophoretic separation of degraded from undegraded type I collagen by polyacrylamide gel electrophoresis and densitometry as follows.
Acid-soluble calf skin collagen (0.25 mg/ml, approximately […]) was incubated at 35° C. for 1 hr with pig synovial collagenase (0.04 μg protein) in 0.05M tris-HCL, 0.2M NaCl, 0.25M glucose, 5 mM CaCl2, 10% dimethyl sulfoxide, pH 7.6 in a total reaction volume of 20 μL. Inhibitors were dissolved in dimethyl sulfoxide and the sulfhydryl titer determined in stock solutions immediately prior to use by the colorimetric procedure of Ellman [Ellman, G. L., Arch. Biochem. Biophys. 82: 70-77 (1959)]. At the end of the reaction period, the reactions were stopped by placing on ice and 20 μL sample dilution buffer was added [Laemmli, U. K., Nature (London) 227: 680-685 (1970)]. The samples were then placed in a boiling water bath for 2-5 minutes after which collagen degradation products were separated from undegraded collagen by sodium dodecyl sulfate-polyacrylamide electrophoresis according to the procedure of Laemmli [1970]. The electrophoretograms were fixed in isopropanol/acetic acid/water (100:40:300) and stained with 1% Coomassie Blue R-250. The percentage of collagen alpha chains degraded was estimated by scanning densitometry and integration of peak areas [Welgus et al., J. Biol. Chem. 256: 9511-9515 (1981)].
A spectrophotometric method was also utilized in some cases to determine collagenase activity [Lindy, S. et al., European J. Biochem. 156: 1-4 (1986)]. […] Stock solutions of inhibitors were prepared in 1 mM acetic acid in ethanol and the sulfhydryl titer determined colorimetrically by the method of Ellman […]. The reaction progress was monitored for 6-10 minutes by following the increase in absorbance at 227 nm that accompanies denaturation of the collagen fragments. Initial rates of collagen degradation were determined from the linear portion of the progress curves.

[1] = test system: alkali-burned rabbit corneas; assay: In vivo model of alkali-burned rabbit corneas; conditions: 1 mM solution topically 6 times per day and subconjunctival once daily for three weeks
[2] = slow-eluting diastereomer (C18 reversed phase), read-out: IC50 (uM) Slow Isomer

For `CC(C)CC(CS)C(=O)N[C@@H](Cc1c[nH]c2ccccc12)C(N)=O` (stereo partly shown) [Compound 2, HSCH2 CH[CH2 CH(CH3)2]COTrpNH2], the IC50 (pig synovial collagenase; fast-eluting diastereomer (C18 reversed phase), read-out: IC50 (uM) Fast Isomer) was 1 µM and the IC50 (pig synovial collagenase; [2]) was 2 µM.

`CC(C)CC(CS)C(=O)N[C@@H](Cc1ccc(Cl)cc1)C(N)=O` (stereo partly shown) showed an IC50 (pig synovial collagenase; [2]) of 1 µM.

`CC(C)CC(CS)C(=O)N[C@@H](Cc1ccccc1)C(=O)N[C@@H](C)C(N)=O` (stereo partly drawn) [Compound 3, 2-[(R,S)-Mercaptomethyl]-4-methylpentanoyl-L-phenylalanyl-L-alanine amide] was tested, and the “% Deep Ulcers” value [1] was 11%, the “% Overall Ulceration” value ([1]; 2N NaOH x 60 seconds burn) was 44% and the “% Perforation” value ([1]; listed as HSCH2 CH[CH2 CH(CH3)2 ]-CO--Phe--Ala--NH2) was 0%. The “% Perforation” value ([1]; listed as HSCH2 CH[CH2 CH(CH3)2 ]CO-Phe-Ala-NH2) was “no perforation”.
